Patent US10000641B2, “Method and composition for preventing corrosion of metal surfaces” (Ecolab USA Inc., priority 2010, dated 2018)

Assay: cyclic sweep (cyclic polarisation) test after the LPR Bubble test
Details: 10 ppm test chemical, sweep maximum ~250 mV

Na Oleyl amphoacetate
Cyclic sweep: potential at which current density rose above 1 mA/cm2 (Brine A): 81 mV
Cyclic sweep: potential at which current density rose above 1 mA/cm2 (Brine B): 250 mV
